Measured values published in PMC3563301 (Journal of medicinal chemistry, 2012).

Legend:
[1] = system: MCF-7 human breast carcinoma cells; assay: Growth inhibition of MCF-7 cells; format: cell-based; conditions: MCF7, 96 h, read-out: MCF-7 IC50 ± SD
[2] = system: HeLa, HT29, A549, HCT 116, and HCT 15 cell lines; assay: Average growth inhibition over five cell lines; format: cell-based; conditions: Homo sapiens, read-out: average IC50 for the five cell lines

SMILES: COc1cc2c(c(OC)c1OC)-c1ccc(OC)c(=O)cc1[C@@H](NC(C)=O)CC2 [Compound 1, colchicine]
- IC50 [1]: 5 ± 1 nM
- IC50 [2]: 34 nM
